PubChem BioAssay AID652054 (National Center for Advancing Translational Sciences (NCATS), 2013)
About 9,100 (2.5%) of roughly 360,000 compounds were called active. Inconclusive means that the source gave no clear call. Such entries were picked first, then a sample of the others. Rule as the data show it: active = max response below about -50%; inconclusive = no clear call, values can overlap the other calls; inactive = above that.

Chains of the proteins cited; added tags and fusions are not shown.
UniProt P35462, whole entry, looked up: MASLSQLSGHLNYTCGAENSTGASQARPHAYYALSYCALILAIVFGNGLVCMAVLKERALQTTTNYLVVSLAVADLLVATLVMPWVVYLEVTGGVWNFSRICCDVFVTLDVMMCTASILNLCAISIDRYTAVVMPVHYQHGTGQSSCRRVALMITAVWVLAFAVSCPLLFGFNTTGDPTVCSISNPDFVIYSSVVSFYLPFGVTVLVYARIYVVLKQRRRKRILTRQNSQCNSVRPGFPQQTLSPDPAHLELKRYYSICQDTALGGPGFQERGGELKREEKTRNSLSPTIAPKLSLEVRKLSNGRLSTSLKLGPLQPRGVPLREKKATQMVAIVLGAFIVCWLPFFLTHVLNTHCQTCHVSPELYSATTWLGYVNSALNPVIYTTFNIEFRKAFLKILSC

Target: D(3) dopamine receptor (Homo sapiens) (UniProt P35462)
Test: qHTS of D3 Dopamine Receptor Antagonist: qHTS
Conditions: D3R cells, DiscoveRx beta-arrestin luminescence, antagonist mode; hits give low values
Outline: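 Cells plated overnight at 1500 cells/well, then exposed to library compounds with dopamine controls for 90 minutes at 37 degrees C. DiscoveRx reagent added for 30–60 minutes at room temperature; luminescence read, quantitative HTS format.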
% is scaled to controls: 0 for no effect and ±100 for the full control effect.

SMILES | max response, negative = inhibition
COc1cc(C)nc(Oc2ccc(OCCOc3ccc(C)cc3)nn2)n1 | inconclusive: -48.1%
CC1=CC(C)(C)N2C(=O)C(=Nc3ccc(O)cc3)c3cccc1c32 | inconclusive: -30.5%
O=S(=O)(c1ccccc1Cl)N1CCC(Cc2ccccc2)CC1 | inconclusive: -30.5%
CCOc1ccc(S(=O)(=O)N2CCN(C(=O)c3cc(C4CC4)nn3-c3ccccc3)CC2)cc1 | inactive: -9.94%
COc1ccc(-c2nnc(NC(=O)c3ccc(S(=O)(=O)N4COCC4(C)C)cc3)o2)cc1 | active: -64.6%
O=C(CBr)c1ccc([N+](=O)[O-])c(CS(=O)(=O)c2ccc(Cl)cc2)c1 | inactive: -23.2%
CCOC(=O)C1=C(C)Nc2ccc(C)cc2S1 | inconclusive: -44.1%
Cc1nc(SCCC(C)C)c([N+](=O)[O-])[nH]1 | inconclusive: -31.6%
COc1ccccc1C(NC(=O)C1CCN(CCc2ccc(Br)cc2)CC1)c1ccccn1 (stereo not given) | inconclusive: -41.2%
O=C(Cc1ccc(Cl)cc1)N1CCN(c2ccc(F)cc2)CC1 | inactive: -8.75%
COc1ccc(-c2ccc3c(c2)S(=O)(=O)c2cccc(C(=O)NC[C@@H]4CCCO4)c2C3=O)cc1OC | inactive: 81.6%
Cc1nc(N2CCN(C)CC2)c2sc(=S)n(C)c2n1 | inconclusive: -35.7%
S=C(NCCC1=CCCCC1)Nc1ccc(Cl)cc1 | inconclusive: -32.6%
COc1ccc(C(=O)/C=C2/C(=O)Nc3ccccc32)cc1 | inconclusive: -34.2%
Cc1ccc(C)c(N2CCN(CCCc3ccccc3)CC2)c1 | active: -65.3%
O=C(Nc1ccc2oc(-c3ccncc3)nc2c1)c1ccccc1F | inactive: -3.4%
Cc1ccc(OCCCn2ccnc2)c(Br)c1 | inactive: -2.06%
O=C1N(CN2CCN(c3cccc(Cl)c3)CC2)c2ccccc2C12OCCCO2 | active: -83.5%
CC1S/C(=N/N=C2CCC(C(C)(C)C)CC2)NC1=O (stereo not given) | inconclusive: -31.1%
CCc1nc(OCCN(CC)CC)c2oc3ccccc3c2n1 | inconclusive: -35.3%
CC[C@H](C)[C@H]1CNC(=S)N1CC1CCN(CCC(C)C)CC1 | inconclusive: -31.2%
CCOC(=O)c1c(C)oc2c1c(CN1CCN(C(=O)OCC)CC1)c(O)c1ccccc12 | inconclusive: -33.3%
COc1cc(SC)ccc1C(=O)Nc1c(C)cccc1C | inactive: 2.37%

SMILES | max response, negative = inhibition
Cc1cc(C)c(C(O)c2ncc(-c3cccc4ccccc34)[nH]2)c(C)c1 (stereo not given) | inconclusive: -41.3%
C=CCNC(=S)NC(=O)c1ccc(C)c(Br)c1 | inactive: 19.4%
C/C=C(\CS(=O)(=O)c1ccccc1)S(=O)(=O)c1ccccc1 | inactive: -16.6%
COC1CCCN(Cc2cn(C)nc2-c2ccc(Oc3ccccc3)cc2)C1 (stereo not given) | active: -52.5%
CC(=O)Nc1ccccc1OCCCN1CCC(C(O)(c2ccccc2)c2ccccc2)CC1 | active: -69.9%
C=CCNc1nc(N2CCCC2)nc2ccccc12 | inactive: -5.58%
CCc1ccc(N2CCN(CCNC(=O)Nc3ccccc3)CC2)cc1 | active: -71.9%
COc1ccccc1N1CCN(CCCCOc2ccc(F)cc2)CC1 | active: -78.2%
O=C1CSC(=S)N1c1cccc(F)c1 | inactive: 3.5%
Cn1nnc(NC(=S)NC(=O)c2cc3ccccc3o2)n1 | inactive: -2.1%
O=C(c1ccc(F)cc1)C(CCCCCC(CN1CCOCC1)C(=O)c1ccc(F)cc1)CN1CCOCC1 (stereo not given) | active: -58.2%
CCN(CC)CC(=O)Nc1sc2c(c1C(=O)c1ccccc1C)CCC2 | inconclusive: -46.4%
Cc1ccc2c(Cl)cc(Cl)c(O)c2n1 | active: -110%
O=C(O)c1ccc(NC2=C(n3nnc4ccccc43)C(=O)c3ccccc3C2=O)cc1 | inconclusive: -35.7%
Oc1ccc(Cl)cc1CNCC1CCCO1 (stereo not given) | inconclusive: -38.1%
COC(=O)c1ccc(NC(=O)COC(=O)CCC2CCCC2)cc1 | inactive: -2.3%
COc1cccc(CSc2nc3ccccc3cc2C=O)c1 | inconclusive: -32%
COc1cccc(NC(=O)COc2ccccc2)c1 | inactive: -16.3%
COc1ccc(N2CCN(Cc3csc(C)c3-c3ccc(C)cc3)CC2)cc1 | inactive: -27.3%
O=C(COC(=O)c1ccc([N+](=O)[O-])s1)NNC(=O)c1ccccc1 | inconclusive: -31%
CCC(C)NC(=O)c1ccc(CN2CCc3ccccc3C2)cc1 (stereo not given) | active: -65.6%
Cn1c(CC2Sc3ccccc3NC2=O)nnc1SCC(=O)c1ccc(Cl)cc1 (stereo not given) | inconclusive: -36.6%
O=C(NCc1nc(-c2ccc(C(F)(F)F)cc2)no1)Nc1ccc(OC(F)(F)F)cc1 | inactive: -6.87%

SMILES | max response, negative = inhibition
O=C(C[C@H]1C[C@H](C(=O)N2CCCCC2)[C@@]2(CCc3ccccc3)c3[nH]c4cc(-c5ccco5)ccc4c3CCN2C1=O)NCc1cccc(C(F)(F)F)c1 | inactive: 2.68%
Cn1nc(C2CC2)cc1NC(=O)C1(C)CCN1C(=O)Cc1ccc(-c2ccccc2)cc1 (stereo not given) | inconclusive: -40.1%
Cc1cnc(C(=O)NC(Cc2ccccc2)c2ccccc2)cn1 (stereo not given) | inactive: 1.87%
COc1cccc(NC(=O)NCc2cccn2C)c1 | inactive: 16%
COc1ccc(/C=N/Nc2nc3ccccc3c(=O)[nH]2)cc1 | inconclusive: -38.2%
CCOc1ccc(-n2c(SCC(=O)OC)nc3sc4c(c3c2=O)CCN(C)C4)cc1 | inconclusive: -31.3%
O=S(=O)(c1cccc(C(F)(F)F)c1)N1CCN(C(=S)NCc2ccco2)CC1 | inactive: -11.3%
Cc1ccc(-n2c(C)cc(C)c(C#N)c2=O)cc1 | inconclusive: -34.2%
Cc1csc(/C(=N/OC(=O)c2ccco2)C(N)=O)n1 | inactive: -0.472%
OC1CNc2c(ccc3ccccc23)C1 (stereo not given) | inactive: 2.11%
CCc1nn(CCCC(=O)N2CCC(C)CC2)c(=O)c2cc3occc3n12 | inconclusive: -32.3%
COc1ccc(C[C@H]2CN3C(=NC[C@@H]3C)N2CCNC(=O)CCC2CCCCC2)cc1 | inconclusive: -35.2%
C=CC(=O)N1C/C(=C/c2ccccc2)C(=O)/C(=C\c2ccccc2)C1 | active: -62.3%
CCCc1nc2ccc(C)cn2c1Cc1ccc(OC)cc1C | inactive: 0%
O=C(CC1COc2ccccc2O1)NCCc1ccccc1 (stereo not given) | inconclusive: -40%
CC1=NN(C(N)=S)C(=O)C1N=Nc1ccc(Br)cc1 (stereo not given) | inconclusive: -48.6%
Brc1ccccc1OCCCN1CCCC1 | inconclusive: -49%
COCCCNC(=O)C[C@@H]1C[C@@]2(C(=O)OC)CC(C)(C)CC=C2N(CCc2ccc(OC)c(OC)c2)C1=O | active: -70.4%
Cc1cc(=O)[nH]c(SCC(=O)Nc2cccc3ccccc23)c1C#N | inconclusive: -35.1%
COC(=O)c1ccc(N2CCN(c3ccccc3)CC2)c(NC(=O)C2CC2)c1 | inactive: -5.66%
O=C(c1cccc(Cl)c1)N1CCCc2ccccc21 | inactive: -12.8%
COc1ccccc1N1CCN(CC(=O)c2ccc3ccn(C(C)=O)c3c2)CC1 | inconclusive: -30.8%
Nc1c(C(=O)NCc2ccco2)c2nc3ccccc3nc2n1CCc1ccc(F)cc1 | active: -62.9%

5 compounds already listed, arranged by number of heavy atoms, ascending:
SMILES | max response, negative = inhibition
OC1CNc2c(ccc3ccccc23)C1 (stereo not given) | inactive: 2.11%
O=C(CC1COc2ccccc2O1)NCCc1ccccc1 (stereo not given) | inconclusive: -40%
CCCc1nc2ccc(C)cn2c1Cc1ccc(OC)cc1C | inactive: 0%
COc1ccccc1N1CCN(CC(=O)c2ccc3ccn(C(C)=O)c3c2)CC1 | inconclusive: -30.8%
Nc1c(C(=O)NCc2ccco2)c2nc3ccccc3nc2n1CCc1ccc(F)cc1 | active: -62.9%

Some of the entries so far, tab-delimited.
SMILES	max response, negative = inhibition
COc1ccc(C[C@H]2CN3C(=NC[C@@H]3C)N2CCNC(=O)CCC2CCCCC2)cc1	inconclusive: -35.2%
C=CC(=O)N1C/C(=C/c2ccccc2)C(=O)/C(=C\c2ccccc2)C1	active: -62.3%

The list continues.

SMILES | max response, negative = inhibition
CCOC(=O)c1c(C)sc2c1N(C(=O)CN1CCOCC1)c1cc(Cl)ccc1S2 | inconclusive: -31.7%
CCOC(=O)N1CCC(NCCNC(=O)c2cccs2)CC1 | active: -77.2%
CNc1nc(NCc2cccc(OC)c2)c2sccc2n1 | inconclusive: -32.4%
O=[N+]([O-])c1ccccc1OCCCN1CCc2ccccc2C1 | active: -103%
Cc1cccc(C)c1-n1nnnc1C(c1cccs1)N1CCN(C/C=C/c2ccccc2)CC1 (stereo not given) | active: -84%
COc1ccc(CN2CCC(C)CC2)cc1OCc1ccccc1 | active: -89.2%
O=c1cc(-c2ccccc2)nc2nc(-c3ccccc3)[nH]n12 | inconclusive: -33.4%
Cc1cccc(C)c1-n1cccc1/C=C1/C(=N)N2C(=NC1=O)SN=C2S(C)(=O)=O | inactive: 4.29%
COc1ccc(C)cc1N(C(=O)c1snc(C(N)=O)c1N)C(C(=O)NC1CCCC1)c1ccc(F)cc1 (stereo not given) | inactive: 4.81%
CC(C)(C)OC(=O)NCc1ccc(NC(=O)c2nc[nH]c2C(=O)NCCNC(=O)c2[nH]cnc2C(=O)Nc2ccc(CNC(=O)OC(C)(C)C)cc2)cc1 | inactive: 75.8%
O=C(c1ccc2c(c1)OCO2)N1CCNc2ccccc2C1 | inconclusive: -46.9%
Cc1ccc(N2CCN(S(=O)(=O)c3ccc(F)c(C)c3)CC2)c(C)c1 | active: -51.2%
CCN(CC)C(=O)CSc1nc2cc(OC)c(OC)cc2c(=O)n1Cc1ccc(Cl)cc1 | inconclusive: -48.2%
CCc1ccc(N(C)S(=O)(=O)c2ccc3[nH]cc(C(=O)NCCN4CCOCC4)c(=O)c3c2)cc1 | inconclusive: -44.9%
O=S(=O)(/C=C/C=C/S(=O)(=O)c1ccccc1)c1ccccc1 | active: -101%
COc1ccc2c(c1)c(C(=O)CN1CCc3ccccc3C1)c(C)n2C | inconclusive: -41.1%
Cc1ncc([N+](=O)[O-])n1CCOC(=O)Nc1ccc(Cl)c(Cl)c1 | inconclusive: -32.1%
CN1CCc2c(sc3c2C(=O)NC(c2cn(Cc4ccccc4)c4ccccc24)N3)C1 (stereo not given) | active: -75.2%
Cc1c(C(=O)Oc2cccc3cccnc23)cccc1[N+](=O)[O-] | inconclusive: -41.8%
COc1ccc(OC)c2cc3ccccc3cc12 | inactive: -24.2%
O=C(NC(c1ccccc1)c1ccc2ccccc2n1)C1CCN(CCOc2ccc(Cl)cc2)CC1 (stereo not given) | inactive: 1.23%
